{
  "source": "paper PMC4405354",
  "key": {"[1]": {"target": "T1, FLAG-MFN1 (mitofusin 1, wild type) (UniProt Q8R4Z9)", "T1 sequence": "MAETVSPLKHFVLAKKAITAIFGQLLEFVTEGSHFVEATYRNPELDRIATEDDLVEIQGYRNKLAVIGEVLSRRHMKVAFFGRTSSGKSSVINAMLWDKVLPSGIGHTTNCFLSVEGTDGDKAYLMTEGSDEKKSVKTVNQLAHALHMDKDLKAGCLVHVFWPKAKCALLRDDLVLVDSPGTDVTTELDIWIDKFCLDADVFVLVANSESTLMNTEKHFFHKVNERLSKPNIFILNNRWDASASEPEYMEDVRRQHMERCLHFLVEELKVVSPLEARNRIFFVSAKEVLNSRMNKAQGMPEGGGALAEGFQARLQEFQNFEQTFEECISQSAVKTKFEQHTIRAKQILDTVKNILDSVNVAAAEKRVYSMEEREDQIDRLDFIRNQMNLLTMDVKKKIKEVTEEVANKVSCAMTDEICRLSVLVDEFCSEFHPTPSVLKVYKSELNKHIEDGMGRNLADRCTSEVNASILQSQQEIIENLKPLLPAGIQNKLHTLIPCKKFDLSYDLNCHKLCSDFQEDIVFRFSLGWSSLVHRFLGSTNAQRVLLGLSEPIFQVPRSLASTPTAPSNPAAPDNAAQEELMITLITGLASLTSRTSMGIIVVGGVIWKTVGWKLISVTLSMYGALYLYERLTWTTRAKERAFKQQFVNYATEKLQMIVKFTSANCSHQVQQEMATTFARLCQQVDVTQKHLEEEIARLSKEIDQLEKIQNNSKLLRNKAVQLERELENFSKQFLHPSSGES", "experiment": "co-IP; anti-FLAG immunoprecipitation from lysates of transfected Mfn1-/- or Mfn2-/- MEFs; lysis in CPBS (6 mM CHAPS in PBS pH 7.4); antibody 1:50, 14 hr, 4°C; protein G-coated magnetic beads; SDS-PAGE and immunoblot"}, "[2]": {"target": "T2, FLAG-MFN2 (mitofusin 2) (UniProt Q8R500)", "T2 sequence": "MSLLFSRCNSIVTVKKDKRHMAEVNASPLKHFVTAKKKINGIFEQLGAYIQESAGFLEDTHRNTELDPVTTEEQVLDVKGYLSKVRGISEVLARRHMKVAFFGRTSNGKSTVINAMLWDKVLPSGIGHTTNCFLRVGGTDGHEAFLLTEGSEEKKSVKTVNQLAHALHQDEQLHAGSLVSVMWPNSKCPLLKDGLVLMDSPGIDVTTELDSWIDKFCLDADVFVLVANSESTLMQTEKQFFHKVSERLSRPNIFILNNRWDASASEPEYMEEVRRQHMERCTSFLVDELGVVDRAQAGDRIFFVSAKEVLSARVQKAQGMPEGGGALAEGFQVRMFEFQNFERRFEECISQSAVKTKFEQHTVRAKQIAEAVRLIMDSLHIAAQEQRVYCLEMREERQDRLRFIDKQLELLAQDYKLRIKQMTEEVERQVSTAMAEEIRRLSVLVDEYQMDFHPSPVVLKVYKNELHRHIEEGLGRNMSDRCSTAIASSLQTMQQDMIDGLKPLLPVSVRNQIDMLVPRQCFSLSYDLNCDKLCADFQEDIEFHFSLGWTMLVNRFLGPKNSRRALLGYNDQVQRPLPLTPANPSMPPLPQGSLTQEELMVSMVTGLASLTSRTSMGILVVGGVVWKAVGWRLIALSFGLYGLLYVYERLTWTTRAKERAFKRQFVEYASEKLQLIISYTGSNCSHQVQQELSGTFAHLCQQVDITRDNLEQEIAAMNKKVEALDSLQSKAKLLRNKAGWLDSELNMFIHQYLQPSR", "experiment": "co-IP; anti-FLAG immunoprecipitation from lysates of transfected Mfn1-/- or Mfn2-/- MEFs; lysis in CPBS (6 mM CHAPS in PBS pH 7.4); antibody 1:50, 14 hr, 4°C; protein G-coated magnetic beads; SDS-PAGE and immunoblot"}},
  "note": "These are yes or no findings as the source states them, for the method shown. In cells and extracts the contact can be indirect. For some assays here: A result given as binding can be weak or reduced; the word gives no strength. Sequences can lack the tags named with a protein.",
  "data": [
    {"substance": "extracellular-signal-regulated kinase (ERK) (mouse (endogenous in MEFs)) (enzyme)", "values": [
      {"measurement": "binding", "setting": "[1]", "value": "binds"},
      {"measurement": "binding", "setting": "[2]", "value": "no binding"}
    ]}
  ]
}
